Assay results reported in PMC6430605.
No constants are given. Whether binding was seen depends on the method and setting. In cells and extracts the contact can be indirect. Binding can be weak; no strength is given.

Protein sequences, listed by entry. Tags and fused reporters are not part of them. Lines headed by an entry give the natural chain unless they say otherwise; changes in a name come on top.
UniProt Q7KJM7: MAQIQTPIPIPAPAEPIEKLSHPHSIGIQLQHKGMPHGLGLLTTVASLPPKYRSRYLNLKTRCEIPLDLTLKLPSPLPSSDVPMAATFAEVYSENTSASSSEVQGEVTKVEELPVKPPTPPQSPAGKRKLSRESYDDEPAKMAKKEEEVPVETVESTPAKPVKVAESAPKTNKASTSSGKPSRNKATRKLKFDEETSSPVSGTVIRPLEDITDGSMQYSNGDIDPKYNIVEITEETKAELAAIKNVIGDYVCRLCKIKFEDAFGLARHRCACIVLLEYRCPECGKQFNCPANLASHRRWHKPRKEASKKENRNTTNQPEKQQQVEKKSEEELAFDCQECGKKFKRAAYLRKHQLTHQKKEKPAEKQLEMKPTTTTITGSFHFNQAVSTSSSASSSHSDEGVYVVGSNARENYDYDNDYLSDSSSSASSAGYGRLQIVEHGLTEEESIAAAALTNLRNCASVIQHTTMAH
UniProt P30052: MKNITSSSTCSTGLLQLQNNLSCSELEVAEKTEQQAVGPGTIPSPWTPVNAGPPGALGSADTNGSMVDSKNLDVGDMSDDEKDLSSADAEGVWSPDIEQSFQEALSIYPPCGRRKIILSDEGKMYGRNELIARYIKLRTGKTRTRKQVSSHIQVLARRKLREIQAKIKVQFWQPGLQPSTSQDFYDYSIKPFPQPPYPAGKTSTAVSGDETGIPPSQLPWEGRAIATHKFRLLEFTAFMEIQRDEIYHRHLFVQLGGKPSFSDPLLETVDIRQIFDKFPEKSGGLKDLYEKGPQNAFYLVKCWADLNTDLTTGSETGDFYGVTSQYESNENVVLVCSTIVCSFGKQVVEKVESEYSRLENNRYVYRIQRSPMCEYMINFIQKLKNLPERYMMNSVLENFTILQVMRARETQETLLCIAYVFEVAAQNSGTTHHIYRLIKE
UniProt O46036: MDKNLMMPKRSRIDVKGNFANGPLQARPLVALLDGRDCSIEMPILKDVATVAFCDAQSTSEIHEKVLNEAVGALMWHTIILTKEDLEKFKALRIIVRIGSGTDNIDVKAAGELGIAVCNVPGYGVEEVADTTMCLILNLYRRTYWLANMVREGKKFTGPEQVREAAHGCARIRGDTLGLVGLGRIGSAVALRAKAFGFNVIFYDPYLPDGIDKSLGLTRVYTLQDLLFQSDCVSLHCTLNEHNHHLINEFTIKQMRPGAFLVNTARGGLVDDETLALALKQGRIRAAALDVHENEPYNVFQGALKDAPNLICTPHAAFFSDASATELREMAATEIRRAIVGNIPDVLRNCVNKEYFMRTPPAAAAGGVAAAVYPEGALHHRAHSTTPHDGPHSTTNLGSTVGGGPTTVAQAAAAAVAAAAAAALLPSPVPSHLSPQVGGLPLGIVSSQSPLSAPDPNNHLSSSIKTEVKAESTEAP
UniProt Q94517: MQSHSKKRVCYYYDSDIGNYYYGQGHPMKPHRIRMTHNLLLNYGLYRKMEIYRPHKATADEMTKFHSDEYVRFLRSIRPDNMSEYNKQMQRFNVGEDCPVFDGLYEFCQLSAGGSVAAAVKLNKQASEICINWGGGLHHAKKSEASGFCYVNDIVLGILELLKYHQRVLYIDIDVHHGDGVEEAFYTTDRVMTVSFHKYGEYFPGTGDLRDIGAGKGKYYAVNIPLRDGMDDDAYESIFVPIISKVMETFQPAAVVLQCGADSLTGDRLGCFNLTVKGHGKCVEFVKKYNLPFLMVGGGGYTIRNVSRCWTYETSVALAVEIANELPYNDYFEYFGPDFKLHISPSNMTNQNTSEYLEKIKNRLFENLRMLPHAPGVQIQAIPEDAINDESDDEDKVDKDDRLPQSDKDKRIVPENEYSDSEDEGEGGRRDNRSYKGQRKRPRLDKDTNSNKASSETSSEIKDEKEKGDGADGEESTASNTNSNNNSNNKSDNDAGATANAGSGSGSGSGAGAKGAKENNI

biological target: FLAG-Nerfin-1 (Drosophila) (UniProt Q7KJM7); assay: co-IP; Drosophila S2R+ cells transfected with epitope-tagged constructs, IP by anti-FLAG

**Q.** With Sd^Q153A (from UniProt P30052 1-440) as the substance, how does the binding read?
**A.** The binding was “binds”.

**Q.** For Myc-Sd (from UniProt P30052 1-440), which binding is on record?
**A.** The binding was “binds”.

**Q.** Which binding does the source give for Sd^L130G (from UniProt P30052 1-440) here?
**A.** Its binding is “no binding”.

**Q.** With Sd^R157A (from UniProt P30052 1-440) as the substance, how does the binding read?
**A.** Its binding is “binds”.

**Q.** For Sd^Y108A (from UniProt P30052), which binding is on record?
**A.** Its binding is “no binding”.

**Q.** With “CtBP (epitope-tagged) (from UniProt O46036 1-476)” as the substance, how does the binding read?
**A.** The binding was “binds”.

**Q.** How did the binding turn out when “Sd^D120N/E121N (from UniProt P30052 1-440)” was run?
**A.** The binding was “binds”.

**Q.** How did the binding turn out when “Rpd3 (epitope-tagged) (from UniProt Q94517 1-521) (enzyme)” was run?
**A.** Its binding is “binds”.
